This assay deals with human skin. To be noted: human forearm; 10 MHz, 25 ms, 0.5 J; areas without lidocaine were irritated, red, and welt-like.

Experimental findings from US11717661B2, “Methods and systems for ultrasound assisted delivery of a medicant to tissue” (Guided Therapy Systems, LLC, priority 2015, dated 2023) are described below.

In the case of `CCN(CC)CC(=O)Nc1c(C)cccc1C` [lidocaine], the “appearance of treatment areas after the application of the ultrasound energy” value is “smooth and contained barely visible remnants”.
